From patent US20090312384A1, “Benzimidazole As Cooling Compounds” (priority 2006, published 2009)

System: panelists
Test: Panel tasting of aqueous solutions for cooling intensity versus menthol at 2 ppm
Type: in vivo
Conditions: aqueous solution at the stated concentration
From the text: Experiments on cooling properties/intensities.
A group of panelists was asked to taste various aqueous solutions of compounds of formula (I) and to indicate which solutions had cooling intensities similar or slightly higher than that of a solution of menthol at 2 ppm.

Structure (SMILES)	Odor
COc1ccc(C(=O)OC(=Cc2nc3cc(C)ccc3n2C(C)C)c2ccc(OC)cc2)cc1 [Example 3, 2-(1-isopropyl-5-methyl-1H-benzo[d]imidazol-2-yl)-1-(4-methoxyphenyl)vinyl 4-methoxybenzoate]	None
Cc1ccc(C(=O)OC(=Cc2nc3ccccc3n2C)c2ccc(C)cc2)cc1 [Example 8, 2-(1-methyl-1H-benzo[d]imidazol-2-yl)-1-p-tolylvinyl 4-methylbenzoate]	None
CCNC(=O)C1CC(C)CCC1C(C)C (stereo not drawn) [N-ethyl p-menthanecarboxamide (WS-3), N-ethyl p-menthanecarboxamide, reference compound]	None
COc1ccc(C(=O)OC(=Cc2nc3ccccc3n2C)c2ccc(OC)cc2)cc1 [1-(4-methoxyphenyl)-2-(1-methyl-1H-benzo[d]imidazol-2-yl)vinyl 4-methoxybenzoate]	None
CC1CCC(C(C)C)C(O)C1 (stereo not drawn) [Example 1-Menthol, 1-Menthol, reference compound]	Minty
COc1ccc(C(=O)OC(=Cc2nc3ccc(C)cc3n2C(C)C)c2ccc(OC)cc2)cc1 [Example 5, 2-(1-isopropyl-6-methyl-1H-benzo[d]imidazol-2-yl)-1-(4-methoxyphenyl)vinyl 4-methoxybenzoate]	None
